Article PMC2367452

Sequences of proteins named here, by UniProt entry; tags and fusion partners are left off. Residues count along the entry.
UniProt Q62424, 320-386: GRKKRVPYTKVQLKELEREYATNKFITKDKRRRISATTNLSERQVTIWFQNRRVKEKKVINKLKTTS

Molecular target: HOXA13 DNA-binding domain peptide (A13-DBD) (UniProt Q62424)
Assay: EMSA
Details: concentration-dependent; EMSA: Promega Gel Shift Binding System; recombinant protein; label: 32P; probe letters rebuilt from the primers and the genome

Sequence | binding result
CGCGGGCTTCTCTACTCTTATTATTAAAGGATCCCCCGGAACGTGTTTACGTTGAGCCTTGTAAACTTCCTGCCCCGGACTTTGCCATCTCTCAGGAAATCAGAACCTGCGCTTGTAAAAGG (double strand) [Foxf1 ChIP-positive PCR amplicon] | binds
CTAATCCCAGCCCTGCTGTAACCATTCCCAAGTTATCCTGTTTCTTCATTTTTTTTATTAAATTATTTTATTTATTTAATTACAAATGTTGCCCTCCTTCCCCGTCCCTGCTCCCAGAGTTTGTTATCCACTCCCCTTCCC (double strand) [Tie2 ChIP-positive PCR amplicon] | binds

For at least one entry, the source does not settle the construct or the ends of the probe.
